The values below come from patent publication US8604042B2, “Bi-aryl meta-pyrimidine inhibitors of kinases” (TargeGen, Inc., priority 2005, dated 2013).

Amino acid sequences for entries named in this document (tags omitted). Residues count along the entry.
UniProt O60674, 808-1132 limits assumed: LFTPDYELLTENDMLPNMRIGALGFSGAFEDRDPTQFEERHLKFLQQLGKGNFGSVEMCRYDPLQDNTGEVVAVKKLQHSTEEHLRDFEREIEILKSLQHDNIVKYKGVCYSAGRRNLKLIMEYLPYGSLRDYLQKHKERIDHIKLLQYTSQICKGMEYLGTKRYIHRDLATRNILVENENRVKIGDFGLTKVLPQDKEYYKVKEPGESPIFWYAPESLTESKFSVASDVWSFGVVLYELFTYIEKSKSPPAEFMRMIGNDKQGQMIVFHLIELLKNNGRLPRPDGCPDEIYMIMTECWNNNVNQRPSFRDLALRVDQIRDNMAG

Molecules are shown by their SMILES. Counter-ions that a name gives are not always drawn. Like-named read-outs stand apart in the source and are kept apart here. Structures were worked out from names or drawings and are uncertain.

The test deals with recombinant JAK2 (Homo sapiens, UniProt O60674). Description: IC50 value determinations for Jak2 kinase, luminescence-based kinase assay (Kinase-Glo). The class given is biochemical. As to conditions: read-out: JAK2 (IC50).
[1] abbreviates: Table 9, SAR of the P2/P1 region, tested form: HCl.
Where [2] appears, read: Table 8, SAR of the P4 region, tested form: HCl.
[3] abbreviates: Table 9, SAR of the P2/P1 region.

For the molecule `Cc1cnc(Nc2ccc(N3CCNCC3)cc2)nc1Nc1cccc(S(=O)(=O)NC(C)(C)C)c1` [N-tert-Butyl-3-[5-methyl-2-(4-piperazin-1-yl-phenylamino)-pyrimidin-4-ylamino]-benzenesulfonamide Hydrochloride], the IC50 – broadly, the concentration needed to halve the response being measured – under setting [1] was 8 nM.

Turning to `Cc1cnc(Nc2ccc(N3CCN(C)CC3)cc2)nc1Nc1ccc(C)c2[nH]ccc12` [5-methyl-N4-(7-methyl-1H-indol-4-yl)-N2-(4-(4-methylpiperazin-1-yl)phenyl)pyrimidine-2,4-diamine Hydrochloride], under setting [2], the IC50 worked out at 5 nM.

`Cc1cnc(Nc2ccc(OCCN3CCCC3)cc2)nc1Nc1ccc2sccc2c1` [N4-Benzo[b]thiophen-5-yl-5-methyl-N2-[4-(2-pyrrolidin-1-yl-ethoxy)-phenyl]-pyrimidine-2,4-diamine]: the IC50 (Table 8, SAR of the P4 region) stood at 28 nM. Regarding `Cc1cnc(Nc2ccc(N3CCOCC3)cc2)nc1Nc1cccc(S(=O)(=O)NC(C)(C)C)c1` [N-tert-Butyl-3-[5-methyl-2-(4-morpholin-4-yl-phenylamino)-pyrimidin-4-ylamino]-benzenesulfonamide], the concentration for half-maximal inhibition (IC50) under setting [3] stood at 12 nM. `CC(=O)N1CCN(c2ccc(Nc3ncc(C)c(Nc4cccc(S(=O)(=O)NC(C)(C)C)c4)n3)cc2C(F)(F)F)CC1` [3-[(2-{[4-(4-acetylpiperazin-1-yl)-3-(trifluoromethyl)phenyl]amino}-5-methylpyrimidin-4-yl)amino]-N-tert-butylbenzenesulfonamide]: the IC50 under setting [3] turned out to be 36 nM. Turning to `Cc1cnc(Nc2ccc(CN3CCN(C)CC3)cc2)nc1Nc1cccc(S(=O)(=O)NC(C)(C)C)c1`, the IC50 under setting [3] turned out to be 29 nM. On to `Cc1cnc(Nc2ccc(N3CCN(C)CC3)cc2)nc1Nc1ccc(Cl)c2[nH]ccc12`, for which, under “Table 8, SAR of the P4 region”, the half-inhibitory concentration (IC50) came to 4 nM. On to `Cc1cnc(Nc2ccc(N3CCN(CCO)CC3)cc2)nc1Nc1cccc(S(=O)(=O)NC(C)(C)C)c1` [N-tert-Butyl-3-(2-{4-[4-(2-hydroxy-ethyl)-piperazin-1-yl]-phenylamino)-[5-methyl-pyrimidin-4-ylamino]-benzenesulfonamide Hydrochloride], for which the IC50 under setting [1] came out at 7 nM. As to `Cc1cnc(Nc2ccc(N3CCN(C)CC3)cc2)nc1Nc1cccc2[nH]ccc12` [N4-(1H-indol-4-yl)-5-methyl-N2-(4-(4-methylpiperazin-1-yl)phenyl)pyrimidine-2,4-diamine Hydrochloride], the IC50 under setting [2] came out at 9 nM.

For `Cc1cnc(Nc2ccc(OC3CCNCC3)cc2)nc1Nc1cccc(S(=O)(=O)NC(C)(C)C)c1` [N-tert-Butyl-3-(5-methyl-2-[4-(piperidin-4-yloxy)-phenylamino]-pyrimidin-4-ylamino}-benzenesulfonamide], the IC50 under setting [3] was determined as 7 nM. On to `Cc1cnc(Nc2ccc(N3CCN(C)CC3)cc2)nc1Nc1cccc2c1OCO2` [N4-Benzo[1,3]dioxol-4-yl-5-methyl-N2-[4-(4-methyl-piperazin-1-yl)-phenyl]-pyrimidine-2,4-diamine], for which the IC50 (Table 8, SAR of the P4 region) was 14 nM. In the case of `Cc1cnc(Nc2ccc(Cn3ccnc3C)cc2)nc1Nc1cccc(S(=O)(=O)NC(C)(C)C)c1` [N-tert-Butyl-3-{5-methyl-2-[4-(2-methyl-imidazol-1-ylmethyl)-phenylamino]-pyrimidin-4-ylamino}-benzenesulfonamide], the IC50 under setting [3] came out at 22 nM. As for `Cc1cnc(Nc2ccc(N3CCN(C)CC3)cc2)nc1Nc1cccc(C2CCN(CCO)CC2)c1` [2-[4-(3-{5-Methyl-2-[4-(4-methyl-piperazin-1-yl)-phenylamino]-pyrimidin-4-ylamino}-phenyl)-piperidin-1-yl]-ethanol], the half-maximal inhibitory concentration (IC50) (Table 8, SAR of the P4 region) was found to be 8 nM. Consider `Cc1cnc(Nc2ccc(CN3CCOCC3)cc2)nc1Nc1cccc(S(=O)(=O)NC(C)(C)C)c1` [N-tert-Butyl-3-[5-methyl-2-(4-morpholin-4-ylmethyl-phenylamino)-pyrimidin-4-ylamino]-benzenesulfonamide], for which the 50% inhibitory concentration (IC50) under setting [3] is 13 nM. On the same count and under the same terms, to `Cc1cnc(Nc2ccc(Cn3cccn3)cc2)nc1Nc1cccc(S(=O)(=O)NC(C)(C)C)c1` [N-tert-Butyl-3-[5-methyl-2-(4-pyrazol-1-ylmethyl-phenylamino)-pyrimidin-4-ylamino]-benzenesulfonamide] belongs 18 nM. As to `Cc1cnc(Nc2cccc(CN3CCOCC3)c2)nc1Nc1cccc(S(=O)(=O)NC(C)(C)C)c1` [N-tert-Butyl-3-(5-methyl-2-(3-morpholin-4-ylmethyl-phenylamino)-pyrimidin-4-ylamino]-benzenesulfonamide], under setting [1], the IC50 came out at 7 nM. For the molecule `Cc1cnc(Nc2ccc(N3CCNCC3)nc2)nc1Nc1cccc(S(=O)(=O)NC(C)(C)C)c1` [N-tert-Butyl-3-[5-methyl-2-(6-piperazin-1-yl-pyridin-3-ylamino)-pyrimidin-4-ylamino]-benzenesulfonamide], the IC50 under setting [3] is 10 nM. For `Cc1cnc(Nc2ccc(OCCN3CCCC3)cc2)nc1Nc1cccc2ccccc12` [N2-(4-(2-(pyrrolidin-1-yl)ethoxy)phenyl)-5-methyl-N4-(naphthalen-1-yl)pyrimidine-2,4-diamine Hydrochloride], under setting [2], the IC50 came to 20 nM.
